Results taken from the supplement of paper PMC10849652.
This is one part of the list.

By UniProt entry, the sequences of proteins in these tests, tags left out. Where a name states a change or a piece, a line headed by the entry shows the natural chain unless it says otherwise.
UniProt P49257: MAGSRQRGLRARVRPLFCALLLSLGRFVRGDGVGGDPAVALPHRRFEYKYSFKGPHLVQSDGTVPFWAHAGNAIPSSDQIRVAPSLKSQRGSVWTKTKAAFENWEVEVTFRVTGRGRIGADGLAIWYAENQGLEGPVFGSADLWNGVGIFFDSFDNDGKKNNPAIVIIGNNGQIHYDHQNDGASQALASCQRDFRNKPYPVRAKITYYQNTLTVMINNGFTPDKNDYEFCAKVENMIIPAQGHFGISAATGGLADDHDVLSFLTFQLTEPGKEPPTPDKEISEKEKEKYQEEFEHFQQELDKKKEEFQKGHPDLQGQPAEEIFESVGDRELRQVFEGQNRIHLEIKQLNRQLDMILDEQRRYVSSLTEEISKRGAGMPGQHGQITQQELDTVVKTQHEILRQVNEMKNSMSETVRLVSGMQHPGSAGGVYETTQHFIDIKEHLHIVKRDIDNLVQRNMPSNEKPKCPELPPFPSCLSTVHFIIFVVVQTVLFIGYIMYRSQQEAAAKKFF
UniProt Q15048: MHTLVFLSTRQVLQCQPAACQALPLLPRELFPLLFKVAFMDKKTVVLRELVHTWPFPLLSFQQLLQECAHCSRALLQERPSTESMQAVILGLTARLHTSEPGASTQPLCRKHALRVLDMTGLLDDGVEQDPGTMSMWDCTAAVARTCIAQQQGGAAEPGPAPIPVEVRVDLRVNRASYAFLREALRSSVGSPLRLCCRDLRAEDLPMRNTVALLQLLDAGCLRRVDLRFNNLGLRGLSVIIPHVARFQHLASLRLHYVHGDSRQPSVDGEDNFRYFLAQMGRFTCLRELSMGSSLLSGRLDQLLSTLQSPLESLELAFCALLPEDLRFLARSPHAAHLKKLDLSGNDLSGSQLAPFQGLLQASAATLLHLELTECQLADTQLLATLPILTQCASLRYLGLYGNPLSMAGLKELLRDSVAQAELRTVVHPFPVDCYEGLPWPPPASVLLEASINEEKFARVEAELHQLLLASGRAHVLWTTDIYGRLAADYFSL
UniProt O95202: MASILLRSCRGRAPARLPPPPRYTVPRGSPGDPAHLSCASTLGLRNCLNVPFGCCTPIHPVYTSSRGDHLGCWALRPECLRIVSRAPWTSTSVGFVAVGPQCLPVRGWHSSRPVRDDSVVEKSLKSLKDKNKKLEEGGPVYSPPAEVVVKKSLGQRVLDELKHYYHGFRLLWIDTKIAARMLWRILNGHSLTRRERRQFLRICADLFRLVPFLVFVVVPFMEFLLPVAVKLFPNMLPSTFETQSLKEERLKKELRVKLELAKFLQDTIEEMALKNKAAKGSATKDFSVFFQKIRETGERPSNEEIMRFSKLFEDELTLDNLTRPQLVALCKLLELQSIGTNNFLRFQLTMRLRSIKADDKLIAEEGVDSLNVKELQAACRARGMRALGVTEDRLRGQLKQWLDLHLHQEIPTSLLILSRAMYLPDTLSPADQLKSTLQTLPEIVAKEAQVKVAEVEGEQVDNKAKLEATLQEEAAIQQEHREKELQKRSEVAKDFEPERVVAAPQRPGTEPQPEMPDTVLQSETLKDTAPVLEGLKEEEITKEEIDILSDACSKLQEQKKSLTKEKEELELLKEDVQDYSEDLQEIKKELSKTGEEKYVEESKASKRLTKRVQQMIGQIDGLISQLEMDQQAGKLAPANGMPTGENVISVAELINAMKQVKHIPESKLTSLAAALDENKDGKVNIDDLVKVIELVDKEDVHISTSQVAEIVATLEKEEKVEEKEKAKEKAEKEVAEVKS
UniProt P20700: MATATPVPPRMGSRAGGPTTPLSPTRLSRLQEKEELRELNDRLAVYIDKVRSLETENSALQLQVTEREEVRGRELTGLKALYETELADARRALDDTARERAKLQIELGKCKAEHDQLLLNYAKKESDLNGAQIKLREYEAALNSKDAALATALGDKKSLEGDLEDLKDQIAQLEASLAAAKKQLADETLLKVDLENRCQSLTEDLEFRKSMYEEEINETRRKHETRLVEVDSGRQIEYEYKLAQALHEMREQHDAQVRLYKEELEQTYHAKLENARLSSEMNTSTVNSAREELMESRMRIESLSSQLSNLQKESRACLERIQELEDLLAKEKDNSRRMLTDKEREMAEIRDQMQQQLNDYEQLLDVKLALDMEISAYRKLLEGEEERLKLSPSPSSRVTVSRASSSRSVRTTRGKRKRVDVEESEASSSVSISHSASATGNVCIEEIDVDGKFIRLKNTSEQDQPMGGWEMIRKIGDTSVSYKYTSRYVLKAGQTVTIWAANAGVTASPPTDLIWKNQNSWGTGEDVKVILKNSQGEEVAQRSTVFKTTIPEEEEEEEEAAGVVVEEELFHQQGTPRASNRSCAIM
UniProt Q6P1A2: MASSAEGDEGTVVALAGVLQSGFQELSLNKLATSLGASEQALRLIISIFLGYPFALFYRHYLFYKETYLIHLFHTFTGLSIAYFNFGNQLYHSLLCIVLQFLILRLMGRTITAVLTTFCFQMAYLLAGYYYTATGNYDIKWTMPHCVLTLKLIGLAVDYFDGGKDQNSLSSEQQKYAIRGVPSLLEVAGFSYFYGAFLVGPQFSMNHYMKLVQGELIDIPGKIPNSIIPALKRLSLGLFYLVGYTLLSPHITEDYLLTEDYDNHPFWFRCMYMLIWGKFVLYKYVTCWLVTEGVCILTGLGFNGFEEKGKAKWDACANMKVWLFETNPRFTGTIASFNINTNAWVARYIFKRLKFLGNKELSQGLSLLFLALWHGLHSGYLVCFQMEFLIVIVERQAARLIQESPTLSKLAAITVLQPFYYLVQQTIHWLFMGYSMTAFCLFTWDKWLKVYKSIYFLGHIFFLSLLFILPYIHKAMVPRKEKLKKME
UniProt P49917: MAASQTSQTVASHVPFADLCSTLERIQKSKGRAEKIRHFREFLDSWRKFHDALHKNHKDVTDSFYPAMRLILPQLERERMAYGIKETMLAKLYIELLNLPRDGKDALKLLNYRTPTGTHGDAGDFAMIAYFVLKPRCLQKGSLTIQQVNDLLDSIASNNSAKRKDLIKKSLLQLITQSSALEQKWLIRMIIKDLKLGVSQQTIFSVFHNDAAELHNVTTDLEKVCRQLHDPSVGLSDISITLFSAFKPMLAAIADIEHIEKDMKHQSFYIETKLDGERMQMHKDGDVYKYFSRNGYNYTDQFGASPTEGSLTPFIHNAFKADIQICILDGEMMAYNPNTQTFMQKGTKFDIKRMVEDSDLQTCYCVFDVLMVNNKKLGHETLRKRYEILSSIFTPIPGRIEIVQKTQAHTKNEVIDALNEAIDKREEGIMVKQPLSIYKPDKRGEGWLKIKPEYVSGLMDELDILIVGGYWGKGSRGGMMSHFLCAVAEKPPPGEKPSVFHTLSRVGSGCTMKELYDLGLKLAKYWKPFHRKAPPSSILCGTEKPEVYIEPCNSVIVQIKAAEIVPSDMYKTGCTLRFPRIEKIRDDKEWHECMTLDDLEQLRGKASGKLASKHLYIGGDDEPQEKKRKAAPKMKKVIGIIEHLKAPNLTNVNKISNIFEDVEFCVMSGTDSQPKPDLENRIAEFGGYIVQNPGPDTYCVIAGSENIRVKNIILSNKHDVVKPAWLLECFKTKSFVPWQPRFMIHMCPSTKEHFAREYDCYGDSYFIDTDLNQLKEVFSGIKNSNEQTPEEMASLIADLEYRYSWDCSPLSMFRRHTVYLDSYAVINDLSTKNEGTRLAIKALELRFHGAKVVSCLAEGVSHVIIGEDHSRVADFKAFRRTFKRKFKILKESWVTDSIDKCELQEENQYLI
UniProt P25791: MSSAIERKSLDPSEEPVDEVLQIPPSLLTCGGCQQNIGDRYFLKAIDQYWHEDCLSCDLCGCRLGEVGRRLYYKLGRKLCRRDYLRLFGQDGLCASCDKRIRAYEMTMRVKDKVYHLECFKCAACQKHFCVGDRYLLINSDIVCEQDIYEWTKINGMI
UniProt P17931, whole entry, looked up: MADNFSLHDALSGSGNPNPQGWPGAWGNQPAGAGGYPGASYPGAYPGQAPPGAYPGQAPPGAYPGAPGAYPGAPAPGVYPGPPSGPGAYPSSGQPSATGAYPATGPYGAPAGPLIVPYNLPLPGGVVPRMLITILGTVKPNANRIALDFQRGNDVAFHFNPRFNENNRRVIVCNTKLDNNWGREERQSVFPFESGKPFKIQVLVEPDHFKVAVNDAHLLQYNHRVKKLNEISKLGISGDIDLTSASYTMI
UniProt P62310: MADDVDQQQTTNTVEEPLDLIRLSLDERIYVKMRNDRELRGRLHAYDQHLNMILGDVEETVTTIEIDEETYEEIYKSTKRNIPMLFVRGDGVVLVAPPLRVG
UniProt P13796: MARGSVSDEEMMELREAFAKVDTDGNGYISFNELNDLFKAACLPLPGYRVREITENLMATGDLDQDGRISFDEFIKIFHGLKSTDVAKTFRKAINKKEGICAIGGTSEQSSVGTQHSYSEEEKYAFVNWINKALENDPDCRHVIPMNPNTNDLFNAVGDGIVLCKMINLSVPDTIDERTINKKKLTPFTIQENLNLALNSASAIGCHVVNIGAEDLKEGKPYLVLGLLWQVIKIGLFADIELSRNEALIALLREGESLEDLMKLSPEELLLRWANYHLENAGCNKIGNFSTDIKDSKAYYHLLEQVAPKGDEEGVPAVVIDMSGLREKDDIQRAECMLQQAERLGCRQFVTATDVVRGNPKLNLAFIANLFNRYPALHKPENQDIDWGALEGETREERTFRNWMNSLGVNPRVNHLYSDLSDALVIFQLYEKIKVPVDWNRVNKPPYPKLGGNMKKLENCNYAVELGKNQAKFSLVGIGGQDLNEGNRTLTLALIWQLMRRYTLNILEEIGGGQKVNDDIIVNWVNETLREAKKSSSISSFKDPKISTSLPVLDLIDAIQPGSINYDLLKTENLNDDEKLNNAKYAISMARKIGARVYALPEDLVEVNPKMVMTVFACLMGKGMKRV
UniProt O60294: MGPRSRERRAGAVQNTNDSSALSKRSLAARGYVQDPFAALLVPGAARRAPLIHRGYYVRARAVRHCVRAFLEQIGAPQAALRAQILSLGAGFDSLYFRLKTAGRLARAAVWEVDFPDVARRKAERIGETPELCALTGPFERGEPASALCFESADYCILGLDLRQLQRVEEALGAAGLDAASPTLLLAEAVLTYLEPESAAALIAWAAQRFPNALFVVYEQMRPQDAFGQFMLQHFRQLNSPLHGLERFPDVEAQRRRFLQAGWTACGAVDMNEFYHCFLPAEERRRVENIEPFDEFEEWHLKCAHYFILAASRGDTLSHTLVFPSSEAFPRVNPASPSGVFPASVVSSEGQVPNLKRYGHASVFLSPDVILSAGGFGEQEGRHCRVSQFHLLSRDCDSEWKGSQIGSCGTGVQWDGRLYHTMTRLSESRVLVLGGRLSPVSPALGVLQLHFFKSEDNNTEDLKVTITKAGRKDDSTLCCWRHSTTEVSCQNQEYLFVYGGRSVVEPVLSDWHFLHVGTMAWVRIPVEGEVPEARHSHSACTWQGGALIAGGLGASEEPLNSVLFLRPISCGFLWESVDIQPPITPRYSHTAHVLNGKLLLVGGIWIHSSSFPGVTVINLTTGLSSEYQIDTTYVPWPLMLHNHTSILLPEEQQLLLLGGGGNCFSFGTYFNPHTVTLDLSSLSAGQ
UniProt Q9H6V9: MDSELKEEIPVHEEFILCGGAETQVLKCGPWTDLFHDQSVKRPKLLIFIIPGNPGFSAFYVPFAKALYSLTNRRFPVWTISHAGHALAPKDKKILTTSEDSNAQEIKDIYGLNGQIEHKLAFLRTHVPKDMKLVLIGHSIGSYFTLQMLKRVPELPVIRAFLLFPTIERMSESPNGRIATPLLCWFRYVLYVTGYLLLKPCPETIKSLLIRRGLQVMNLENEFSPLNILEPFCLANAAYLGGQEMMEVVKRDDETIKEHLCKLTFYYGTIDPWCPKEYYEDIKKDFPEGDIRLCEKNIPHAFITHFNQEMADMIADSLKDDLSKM
UniProt Q9NUP9: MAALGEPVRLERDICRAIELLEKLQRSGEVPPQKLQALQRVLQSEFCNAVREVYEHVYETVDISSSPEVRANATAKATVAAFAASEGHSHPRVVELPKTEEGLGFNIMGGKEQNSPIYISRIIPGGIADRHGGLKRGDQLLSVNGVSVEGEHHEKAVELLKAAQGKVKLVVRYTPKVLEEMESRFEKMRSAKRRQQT

compound: C1=CC(=CC=C1C2=NC3=C(N2)C=C(C=C3)C(=O)N)OC4=CC=C(C=C4)Cl; assay: log2 fold change, soluble protein after heating vs DMSO (PISA); higher = thermal stabilisation; K562 lysate, 10 uM; active = over 0.2 and 3.5 SD of the protein, either way, in both replicates (recomputed)
Method in brief: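 Soluble protein was defined as the supernatant remaining after 21,000xg for 90 min, following pooling of heated aliquots and adjustment to 0.5% NP-40 at 4°C. Before that, crude K562 extract at 1 mg/mL protein in PBS pH 7.4 with 1 mM MgCl2 was treated with 10 μM compound for 30 min and heated for 3 min across 48°C-58°C. Quantification used TMTpro 16plex LC-MS/MS with channel sums equalised, and values are log-two fold changes in thermal stability relative to solvent controls from duplicates.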

log2 fold change, inactive:
LMAN1 (UniProt P49257) 0.06
LRRC14 (UniProt Q15048) 0.046
LETM1 (UniProt O95202) -0.157
LMNB1 (UniProt P20700) -0.032
LPCAT3 (UniProt Q6P1A2) -0.288
LIG4 (UniProt P49917) -0.04
LRCH4 (UniProt O75427) -0.021
LMO2 isoform 3 (UniProt P25791) -0.083
LGALS3 (UniProt P17931) -0.021
LSM3 (UniProt P62310) 0.055
LCP1 (UniProt P13796) 0.024
LCMT2 (UniProt O60294) -0.012
LDAH isoform 2 (UniProt Q9H6V9) -0.057
LIN7C (UniProt Q9NUP9) -0.008
